Results published in US20220273810A1 (IMCARE BIOTECH, published 2022).
No constants are given. Whether binding was seen depends on the method and setting. Some results given as binding are weak or reduced against the parent protein; the word gives no strength.

Experiments:
[1] = molecular target: T1, AS-SPIK (Abnormal Secreted serine protease inhibitor Kazal) (Homo sapiens (Human)) (UniProt P00995); test: test of monoclonal antibodies of FIG. 1 (described in Example 1)
T1 sequence: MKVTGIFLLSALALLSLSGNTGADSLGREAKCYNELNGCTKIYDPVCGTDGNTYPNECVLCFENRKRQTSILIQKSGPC

[2] = molecular target: T1, AS-SPIK (Abnormal Secreted serine protease inhibitor Kazal) (Homo sapiens (Human)); test: ELISA, plate-immobilized partially purified AS-SPIK from S2-3 cells
[3] = molecular target: T1, AS-SPIK (Abnormal Secreted serine protease inhibitor Kazal) (Homo sapiens (Human)); test: sandwich ELISA, S2-3 medium, complex captured on polyclonal anti-SPIK plate
[4] = molecular target: T1, AS-SPIK (Abnormal Secreted serine protease inhibitor Kazal) (Homo sapiens (Human)); test: ELISA on a plate immobilised with partially purified AS-SPIK from S2-3 cells, OD450nm; antibody concentration not given

Measured: binding

B1: IM-C6 (antibody, V domains shown)
VH: QSVKESEGGLFKPTDALTLTCTVSGFSLSSYAISWVRQAPGSGLEWIGAINTYGGTYYASWAKSRSTITRNTNENTVTLKMTSLTAADTATYFCARDFDSDAYTSASGGMDPWGPGTLVTVSS
VL: AYDMTQTPASVEVAVGGTVTIKCQASQSINNYLSWYQQIPGQPPKLLIYRASTLASGVSSRFKGSGSGTQFTLTISGVQCADAATYYCQQGYTSNVDNVFGGGTEVVVKG
notes: Rabbit monoclonal antibody
binds: all assays above

B2: IM-D3 (antibody, V domains shown)
VH: QSVKESEGGLFKPTDTLTLTCTVSGFSLSSYAIGWVRQAPGNGLEWIGTIVTSGIPYYANWAKSRSTITRNTNLNTVTLKMTSLTAADTATYFCARNLDPAYSTTRLDLWGQGTLVTVSS
VL: AYDMTQTPASVSEPVRGTVTIKCQASQSISTALAWYQQKPGQPPKLLIYAASYLASGVPSRFSGSGSGTEFTLTISDLECADAATYYCHQGYSASNVDNTFGGGTEGGVKG
notes: Rabbit monoclonal antibody
binds: all assays above

B3: IM-D5 (antibody, V domains shown)
VH: QSVKESEGGLFKPTDTLTLTCTVSGFSLSSYAISWVRQAPGNGLEWIGAIGKSGSAYYASWAKSRSTITRNTNLNTVSLKMTSLTAADTATYFCARWDSVGWTDARLDLWGQGTLVTVSS
VL: AYDMTQTPASVEVAVGGTVTIKCQASQSISTALAWYQQKPGQRPKLLIYGASKLASGVSSRFSGSGSGTEFTLTISGVECADAATYYCQQGYETSNVDNAFGGGTEVVVKG
notes: Rabbit monoclonal antibody
binds: all assays above

B4: IM-G7 (antibody, V domains shown)
VH: QSVKESEGGLFKPTDTLTLTCTVSGFSLSSNVISWVRQAPGKGLEWIGDIYVSGNTDYASWAKSRSTITRNANLNTVTLKMTSLTAADTATYFCARYDMSSDAFDPWGPGTLVTVSS
VL: AYDMTQTPASVEVAVGGTVTIKCQASQNIGSYLSWYQHKPGQRPRLLMYRASTLASGVSSRFKGSGSGTEFTLTISGVQCDNAATYYCQQGYTNSGVDNTFGGGTEVVVKG
notes: Rabbit monoclonal antibody
binds: all assays above

B5: IM-G6 (antibody, V domains shown)
VH: QSVKESEGGLFKPTDTLTLTCTVSGFSLSSYPISWVRQAPGNGLEWIGDIYASGSILYASWATGRSTITRNTNLNTVTLKMTSLTAADTATYFCARVSYSGGTDIWGPGTLVTVSS
VL: AYDMTQTPASVEVAVGGTVTIKCQASEDIESYLAWYQQKPGQPPKLLIYRASTLPSGVPSRFKGSGSGTEFTLTISDLECADAATYYCQQDYSSSNVDNTFGGGTEVVVKG
notes: Rabbit monoclonal antibody
binds: all assays above

B6: IM-A6 (antibody, V domains shown)
VH: QSVKESEGGLFKPTDTLTLTCTVSGFSLSSYAISWVRQAPGNGLEWIGRINSGGATDYASWARSRSTITRDTNLNTVTLQMTSLTAADTATYFCAKEEYSYGGAYGMWGPGTLVTVSS
VL: AYDMTQTPASVSAAVGGTVTIKCQASESISTYLSWLQQKPGQPPKLLIYKASTLASGVPSRFKGSGSGTEFTLTISGVQCDDAATYYCQQDYTISNVGNVFGGGTEVVVKG
notes: Rabbit monoclonal antibody; also called I-A6
binds: all assays above

B7: IM-F5 (antibody, V domains shown)
VH: QSVKESEGGLFKPTDTLTLTCTVSGFSLSIYGVSWVRQAPGNGLEWIGIIYASGSADYASWAKSRSTITRNTNLNTVTLKMTSLTAADTATYFCAREDDTYGYTSSIWGPGTLVTVSS
VL: AYDMTQTPASVSAAVGGTVTIKCQASQSISSYLNWYQQKPGQPPKRLIYRASTLASGVSSRFKGSGSGTQFTLTISGVECADAATYYCQQDYSSNNIDNTFGGGTEVVVKG
notes: Rabbit monoclonal antibody
binds: all assays above
